This test deals with HEK293A TEAD-LUC reporter. Briefly: TEAD-luciferase reporter activity (YAP activation), robust Z score vs plate; higher = stronger YAP/TEAD activation. As to conditions: 24 h. (Reporter assays use an easily measured gene product as a stand-in for the process of interest.)

Some of the results follow. Repeats in this data set agree poorly, so a single value says little.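 In a drug-repurposing library screen, luminescence reads luciferase driven by eight TEAD-binding elements, stably integrated into human kidney-derived cells. Compounds scoring over five robust Z scores above the plate mean are called hits.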

Take `CC/C=C\C/C=C\C/C=C\C/C=C\C/C=C\C/C=C\CCC(=O)OCC` [omega-3-acid ethyl esters]: the TEAD-luciferase reporter activity (compound concentration: 2 uM) was inactive: 1.06.
In the case of `CC/C=C\C/C=C\C/C=C\C/C=C\C/C=C\C/C=C\CCC(=O)OCC` [omega-3-acid ethyl esters, Pronova], the TEAD-luciferase reporter activity was inactive: 0.655 (compound concentration: 200 nM) and inactive: 3.24 (compound concentration: 10 uM).
On to `O=C(N[C@H]1c2ccccc2C[C@H]1c1ccc(O)cc1)C(c1ccccc1)c1ccccc1`, for which the TEAD-luciferase reporter activity is, setting by setting: (compound concentration: 200 nM) inactive: 1.37; (compound concentration: 2 uM) inactive: -1.52; (compound concentration: 10 uM) inactive: -1.34.
In the same order, the values of `O=C(NCCN1CCC(OC(c2ccccc2)c2ccccc2)CC1)c1cc2cccc(OCc3cccnc3)c2cc1O` are inactive: 0.767, inactive: -0.604 and inactive: -0.94.
For `Clc1ccc(C(c2ccccc2Cl)C(Cl)Cl)cc1` (centres undefined) [Mitotane], the TEAD-luciferase reporter activity is, setting by setting: (compound concentration: 200 nM) inactive: 0.307; (compound concentration: 2 uM) inactive: 1.35; (compound concentration: 10 uM) inactive: -0.802.
The corresponding values for `C=CC1=C(C)c2cc3[nH]c(cc4nc(cc5[nH]c(cc1n2)c(C)c5CCC(=O)O)C(CCC(=O)OC)=C4C)[C@@]1(C)C3=CC=C(C(=O)OC)[C@H]1C(=O)OC` are inactive: -1.99, inactive: -2.11 and inactive: 0.0158.
As to `CNC(=O)[C@H](Cc1ccccc1)NC(=O)[C@H](CC(C)C)[C@H](CSc1ccccc1)C(=O)NO`, the TEAD-luciferase reporter activity is, setting by setting: (compound concentration: 200 nM) inactive: -0.849; (compound concentration: 2 uM) inactive: 0.245; (compound concentration: 10 uM) inactive: 0.673.
Consider `CCCCNc1c(C(=O)OCC)c(C)nc2c1cnn2CC` [tracazolate], for which the TEAD-luciferase reporter activity is, setting by setting: (compound concentration: 200 nM) inactive: -0.35; (compound concentration: 2 uM) inactive: -2.53; (compound concentration: 10 uM) inactive: 0.0557.
In the same order, the values of `C=C(C)Cn1c(N)cc(=O)n(C)c1=O` are inactive: -0.662, inactive: 0.135 and inactive: 3.93.
`c1ccc2c(c1)CC2CCN1CCN(c2cccc3c2OCCO3)CC1` (centres undefined): the TEAD-luciferase reporter activity (compound concentration: 200 nM) is inactive: -0.885, the TEAD-luciferase reporter activity (compound concentration: 2 uM) was inactive: 0.161 and the TEAD-luciferase reporter activity (compound concentration: 10 uM) was inactive: 2.85.
Turning to `O=c1ccc2ccccc2o1` [Coumarin], the TEAD-luciferase reporter activity was inactive: -0.0797 (compound concentration: 200 nM), inactive: -1.56 (compound concentration: 2 uM) and inactive: 0.00991 (compound concentration: 10 uM).
The corresponding values for `Cc1cccc(C)c1OCCN1CCC(C(O)(c2ccc(F)cc2)c2ccc(F)cc2)CC1` are inactive: -1.57, inactive: -0.075 and inactive: -0.494.
The corresponding values for `N#Cc1cccc(C2C=C(C(F)(F)F)NC3=C2C(=O)CCC3)c1` (centres undefined) are inactive: 0.633, inactive: 0.819 and inactive: 4.99.
In the same order, the values of `CCOC(=O)[C@H](CCc1ccccc1)N[C@@H](C)C(=O)N1C2CCC(CC2)[C@H]1C(=O)O` are inactive: -1.66, inactive: 0.247 and inactive: -0.0945.
Turning to `CC1=C2C[C@H]3[C@@H](CC[C@@H]4C[C@H](NS(C)(=O)=O)CC[C@@]43C)[C@@H]2CC[C@@]2(C1)O[C@@H]1C[C@H](C)CN[C@H]1[C@H]2C` [Patidegib], the TEAD-luciferase reporter activity runs as follows: (compound concentration: 200 nM) inactive: -0.749; (compound concentration: 10 uM) inactive: 0.105.
For `CC(C)C[C@H](NC(=O)[C@H](CO)NC(=O)[C@@H](NC(=O)CNC(=O)[C@@H](N)CCCCN)C(C)C)C(=O)N[C@@H](CO)C(=O)N[C@@H](Cc1ccc(O)cc1)C(=O)N[C@@H](CCCNC(=N)N)C(=O)NCCCCC(NC(=O)[C@H](CCCNC(=N)N)NC(=O)[C@H](Cc1ccc(O)cc1)NC(=O)[C@H](CO)NC(=O)[C@H](CC(C)C)NC(=O)[C@H](CO)NC(=O)[C@@H](NC(=O)CNC(=O)[C@@H](N)CCCCN)C(C)C)C(N)=O` (some centres undefined), the TEAD-luciferase reporter activity (compound concentration: 200 nM) is inactive: -0.184, the TEAD-luciferase reporter activity (compound concentration: 2 uM) was inactive: 0.413 and the TEAD-luciferase reporter activity (compound concentration: 10 uM) is inactive: 0.0724.
`N#C[N-]c1nncs1` [sodium of N-(1,3,4-thiadiazol-2-yl)cyanamide]: the TEAD-luciferase reporter activity was inactive: 0.12 (compound concentration: 200 nM), inactive: -0.463 (compound concentration: 2 uM) and inactive: -0.837 (compound concentration: 10 uM).
In the same order, the values of `Cc1cccc(C(=O)NCN2CCC(c3cccc[n+]3[O-])CC2)c1` are inactive: 1.65, inactive: -0.611 and inactive: -1.12.
In the same order, the values of `CN(C)Cc1ccc(CSCCNC(=O)c2ccc[n+]([O-])c2)o1` are inactive: -0.933, inactive: 1.22 and inactive: -0.129.
As for `C[C@H](NC(=O)C(C)(F)F)[C@H](Oc1ccc2c(cnn2-c2cccc(C(=O)N[C@@H]3CCOC3)c2)c1)c1ccc2c(c1)OCCO2`, the TEAD-luciferase reporter activity is, setting by setting: (compound concentration: 200 nM) inactive: 1.67; (compound concentration: 10 uM) inactive: 0.622.
Regarding `Cc1cccc(OCCNCc2cc(F)cc(C#N)c2)c1`, the TEAD-luciferase reporter activity is inactive: -0.9 (compound concentration: 200 nM), inactive: -0.602 (compound concentration: 2 uM) and inactive: 0.15 (compound concentration: 10 uM).
Take `Cc1ccc(C(=O)N2CCC(=CC(=O)N[C@@H]3CCN(Cc4ccc5cc(F)ccc5c4)C3)CC2)nn1`: the TEAD-luciferase reporter activity (compound concentration: 200 nM) is inactive: -0.338, the TEAD-luciferase reporter activity (compound concentration: 2 uM) was inactive: -1.94 and the TEAD-luciferase reporter activity (compound concentration: 10 uM) was inactive: -0.431.
The corresponding values for `CCC(CC)(CC(=O)Nc1cccc(OCc2ccc3ccc(F)cc3n2)c1)C(=O)O` are inactive: 0.196, inactive: -0.000773 and inactive: 0.411.
Turning to `Cc1cc(C(=O)NC[C@@H]2CC[C@H]3C[C@@H]2C3(C)C)ccc1Cl`, the TEAD-luciferase reporter activity is inactive: -0.627 (compound concentration: 200 nM) and inactive: 2.23 (compound concentration: 10 uM).
For `COCCNC(=O)c1ccnc(C(=O)NCCOC)c1` [Lufironil], the TEAD-luciferase reporter activity is inactive: 2.07 (compound concentration: 200 nM), inactive: -0.0229 (compound concentration: 2 uM) and inactive: 2 (compound concentration: 10 uM).
Take `COCC(=O)N1CCCC1C(=O)N1CCC(c2ccccc2)CC1` (centres undefined): the TEAD-luciferase reporter activity is active: 13 (compound concentration: 200 nM) and inactive: -0.744 (compound concentration: 10 uM).
On to `CN(C)CC#CCCC(=O)C(O)(c1ccccc1)C1CCC1` (centres undefined), for which the TEAD-luciferase reporter activity is, setting by setting: (compound concentration: 200 nM) inactive: -0.381; (compound concentration: 2 uM) inactive: -0.91; (compound concentration: 10 uM) inactive: 0.589.
The corresponding values for `CC(C)CCNc1ncccc1C(=O)N1CCN(Cc2ccccc2)CC1` are inactive: -0.41, inactive: -1.6 and inactive: 0.125.
The corresponding values for `CCCOC(=O)N[C@@H](C(=O)N1CCC[C@H]1C(=O)NC[C@H]1CC[C@H](N)CC1)C(C)(C)SC(C)C` are inactive: -0.401, inactive: -0.551 and inactive: 1.25.
The corresponding values for `CCN(CC)CCN(Cc1ccc(-c2ccc(C(F)(F)F)cc2)cc1)C(=O)Cn1c(SCc2ccc(F)cc2)nc(=O)c2c1CCC2` [Darapladib] are inactive: 0.632, inactive: 0.0168 and inactive: -0.614.
As for `Cc1[nH]c(-c2ccccc2)c(N)c1C(=O)C(C)C` [isoprazone], the TEAD-luciferase reporter activity reads like this: (compound concentration: 200 nM) inactive: -0.784; (compound concentration: 2 uM) inactive: -0.898; (compound concentration: 10 uM) inactive: 0.876.
In the same order, the values of `Cc1csc(S(=O)(=O)N(CC(C)C)c2cc3c(cc2OCc2ccc(C(=O)O)cc2)CCC3)n1` are inactive: -0.123, inactive: 1.29 and inactive: 0.0415.

The values above are taken from the supplement of paper PMC10735217.
